Data on 36 substances can be found in US11230581B2, “Peptides and combination of peptides for use in immunotherapy against ovarian cancer and other cancers” (Immatics Biotechnologies GmbH, priority 2015, dated 2022).

In one data set the test system is ovarian cancer samples. In words: Relative LC-MS quantitation of HLA-presented peptides: presentation and over-presentation on ovarian cancer vs a panel of normal tissues (presentation score). More on the design: species or system human; key: +++: very highly over-presented on tumors compared to a panel of normal tissues; ++: highly over-presented on tumors compared to a panel of normal tissues; +: over-presented on tumors compared to a panel of normal tissues. To be noted: over-presentation on tumors compared to a panel of normal tissues.

The test system of another data set is additional tumor types. In words: LC-MS detection and over-presentation of the peptides on additional tumor types, cell lines and primary cultures. The arrangement: species or system human. The conditions noted are these: for Additional organs/cancerous diseases: additional tumor types with over-presentation on more than 5% of the measured tumor samples, or presentation on more than 5% with ratio of geometric means tumor vs normal tissues larger than 3; for Other relevant organs/ cancerous diseases: Table 4A: additional tumor types on which the peptide was found, over-presented on more than 5% of measured tumor samples, or presented on more than 5% with ratio of geometric means tumor vs normal tissues larger than 3.

In the case of “351 (SLIPNLRNV; listed as Homo sapiens) [compound 351]”, the “Peptide Presentation (presentation score)” value (from here on “Peptide Presentation”) in the data set with ovarian cancer samples is reported as “+++”. Moreover, in the data set with additional tumor types, the Additional organs/cancerous diseases entry is listed as “CRC, Esophageal Cancer”.
For the substance “352 (SLLELLHIYV; listed as Homo sapiens) [compound 352]”, the “Peptide Presentation” value with ovarian cancer samples is given as “+”. Moreover, the Additional organs/cancerous diseases entry with additional tumor types is given as “CLL, AML”.
With “356 (KLLGKLPEL; listed as Homo sapiens) [compound 356]”, in the data set with ovarian cancer samples, the “Peptide Presentation” value is given as “++”. Further, in the data set on additional tumor types, the “Other relevant organs/ cancerous diseases” value is “NSCLC, CRC, Esophageal Cancer” and the Additional organs/cancerous diseases entry is on record as “Melanoma, Urinary Bladder Cancer”.
As to “357 (SMHDLVLQV; listed as Homo sapiens) [compound 357]”, the “Peptide Presentation” value in the data set with ovarian cancer samples is given as “++”. In addition, the “Other relevant organs/ cancerous diseases” value with additional tumor types is listed as “Brain Cancer, PC, Endometrium”.
Consider “358 (ALDEYTSEL; listed as Homo sapiens) [compound 358]”, for which the “Peptide Presentation” value with ovarian cancer samples is given as “+”. For the same substance, in the data set on additional tumor types, the “Other relevant organs/ cancerous diseases” value is listed as “Brain Cancer, PC, Leukemia, BrCa, Uterine Cancer” and the Additional organs/cancerous diseases entry is reported as “Urinary Bladder Cancer”.
Take “359 (YLLPESVDL; listed as Homo sapiens) [compound 359]”: the “Peptide Presentation” value with ovarian cancer samples is given as “+”. In the data set with additional tumor types, the “Other relevant organs/ cancerous diseases” value was “NSCLC, CRC, HCC, Esophageal Cancer” and the Additional organs/cancerous diseases entry was “CLL, Uterine Cancer, NHL, HNSCC”.
As for “360 (ALDSGASLLHL; listed as Homo sapiens) [compound 360]”, the “Peptide Presentation” value in the data set on ovarian cancer samples is reported as “+”. In the data set with additional tumor types, the “Other relevant organs/ cancerous diseases” value is given as “RCC, HCC, Esophageal Cancer, Urinary bladder Cancer, Uterine Cancer” and the Additional organs/cancerous diseases entry is recorded as “HNSCC”.
With “363 (KVLDVSDLESV; listed as Homo sapiens) [compound 363]”, the “Peptide Presentation” value with ovarian cancer samples is recorded as “++”. In the data set with additional tumor types, the “Other relevant organs/ cancerous diseases” value is “Urinary bladder, Endometrium”; the Additional organs/cancerous diseases result was “NSCLC, Esophageal Cancer, Urinary Bladder Cancer, Gallbladder Cancer and Bile Duct Cancer, HNSCC”.
Regarding “370 (SLLQDLVSV; listed as Homo sapiens) [compound 370]”, the “Peptide Presentation” value with ovarian cancer samples is “+”. In the data set on additional tumor types, the “Other relevant organs/ cancerous diseases” value is reported as “HCC”; the Additional organs/cancerous diseases entry was “BRCA, Melanoma, Gallbladder Cancer and Bile Duct Cancer, HNSCC”.
“373 (SLLEDKGLAEV; listed as Homo sapiens) [compound 373]”: the “Peptide Presentation” value in the data set on ovarian cancer samples is on record as “+”. For the same substance, the “Other relevant organs/ cancerous diseases” value in the data set with additional tumor types was “NSCLC, SCLC, Leukemia, BrCa, MCC, Melanoma”.
As for “375 (SLTETIEGV; listed as Homo sapiens) [compound 375]”, the “Peptide Presentation” value in the data set with ovarian cancer samples is “+++”. In the data set with additional tumor types, the “Other relevant organs/ cancerous diseases” value is given as “BrCa, Esophageal Cancer”; the Additional organs/cancerous diseases entry was “Gallbladder Cancer and Bile Duct Cancer”.
Take “379 (IMEGTLTRV; listed as Homo sapiens) [compound 379]”: the “Peptide Presentation” value in the data set on ovarian cancer samples is “+”. For the same substance, in the data set with additional tumor types, the “Other relevant organs/ cancerous diseases” value is “Leukemia” and the Additional organs/cancerous diseases entry is reported as “RCC, CLL, Melanoma, Urinary Bladder Cancer, NHL”.
For “382 (ALQNYIKEA; listed as Homo sapiens) [compound 382]”, in the data set on ovarian cancer samples, the “Peptide Presentation” value is reported as “+”. Further, in the data set with additional tumor types, the “Other relevant organs/ cancerous diseases” value was “Esophageal Cancer” and the Additional organs/cancerous diseases entry was “BRCA”.
“384 (ILFANPNIFV; listed as Homo sapiens) [compound 384]”: the “Peptide Presentation” value with ovarian cancer samples is recorded as “+”. In addition, in the data set with additional tumor types, the “Other relevant organs/ cancerous diseases” value was “CRC, Leukemia, Melanoma” and the Additional organs/cancerous diseases result is “CLL, Urinary Bladder Cancer, Uterine Cancer, NHL”.
Regarding “385 (SLLEQGLVEA; listed as Homo sapiens) [compound 385]”, the “Peptide Presentation” value in the data set on ovarian cancer samples is given as “+”. Moreover, in the data set on additional tumor types, the “Other relevant organs/ cancerous diseases” value was “NSCLC, SCLC, Brain Cancer, HCC, Esophageal Cancer, Uterine Cancer, Gallbladder Cancer, Bile Duct Cancer” and the Additional organs/cancerous diseases entry is on record as “BRCA, AML, HNSCC”.
Take “386 (ILFRYPLTI; listed as Homo sapiens) [compound 386]”: the “Peptide Presentation” value in the data set with ovarian cancer samples is given as “++”. In the data set with additional tumor types, the “Other relevant organs/ cancerous diseases” value is recorded as “Urinary bladder Cancer” and the Additional organs/cancerous diseases entry is “Melanoma, Uterine Cancer, AML”.
Consider “390 (ALFMKQIYL; listed as Homo sapiens) [compound 390]”, for which, in the data set on ovarian cancer samples, the “Peptide Presentation” value was “++”. For the same substance, the “Other relevant organs/ cancerous diseases” value with additional tumor types is on record as “Urinary bladder Cancer”.
For “394 (LLAVIGGLVYL; listed as Homo sapiens) [compound 394]”, the “Peptide Presentation” value with ovarian cancer samples was “+”. Besides, in the data set with additional tumor types, the “Other relevant organs/ cancerous diseases” value is recorded as “NSCLC, SCLC, RCC, HCC, PrC, Leukemia, Melanoma, Urinary bladder Cancer” and the Additional organs/cancerous diseases entry was “BRCA”.
Consider “395 (ALALGGIAVV; listed as Homo sapiens) [compound 395]”, for which the “Peptide Presentation” value with ovarian cancer samples is “++”. In addition, in the data set with additional tumor types, the “Other relevant organs/ cancerous diseases” value is reported as “NSCLC, CRC, HCC, PrC, Leukemia, BrCa, Melanoma, Esophageal Cancer, Urinary bladder Cancer, Uterine Cancer” and the Additional organs/cancerous diseases result is recorded as “CLL, NHL, HNSCC”.
Consider “396 (ALLPDLPAL; listed as Homo sapiens) [compound 396]”, for which the “Peptide Presentation” value in the data set with ovarian cancer samples is reported as “++”. In the data set with additional tumor types, the “Other relevant organs/ cancerous diseases” value is “HCC, BrCa”; the Additional organs/cancerous diseases entry is “SCLC, Gallbladder Cancer and Bile Duct Cancer, AML, NHL, HNSCC”.
With “397 (YLFGERLLEC; listed as Homo sapiens) [compound 397]”, the “Peptide Presentation” value in the data set on ovarian cancer samples is given as “+”. In the data set on additional tumor types, the “Other relevant organs/ cancerous diseases” value was “Colon, Rectum, Leukemia” and the Additional organs/cancerous diseases result is listed as “CLL, Uterine Cancer”.
On to “398 (KLLEEDGTIITL; listed as Homo sapiens) [compound 398]”, for which the “Peptide Presentation” value with ovarian cancer samples is “+”. In addition, in the data set with additional tumor types, the “Other relevant organs/ cancerous diseases” value was “Colon, Rectum, PC”; the Additional organs/cancerous diseases result is “BRCA, Esophageal Cancer, Gallbladder Cancer and Bile Duct Cancer”.
In the case of “399 (YLFEPLYHV; listed as Homo sapiens) [compound 399]”, the “Peptide Presentation” value with ovarian cancer samples is on record as “+++”. Also, the “Other relevant organs/ cancerous diseases” value in the data set on additional tumor types was “SCLC”.
Turning to “401 (ILLDDTGLAYI; listed as Homo sapiens) [compound 401]”, the “Peptide Presentation” value in the data set with ovarian cancer samples was “+”. In addition, in the data set with additional tumor types, the “Other relevant organs/ cancerous diseases” value is “SCLC, HCC, Leukemia, BrCa, Melanoma”; the Additional organs/cancerous diseases result was “CLL, Urinary Bladder Cancer, Gallbladder Cancer and Bile Duct Cancer, NHL”.
As to “403 (KLYDRILRV; listed as Homo sapiens) [compound 403]”, the “Peptide Presentation” value with ovarian cancer samples is on record as “++”. In addition, in the data set with additional tumor types, the “Other relevant organs/ cancerous diseases” value is given as “NSCLC, RCC” and the Additional organs/cancerous diseases result is listed as “BRCA”.
Take “404 (AIDISGRDPAV; listed as Homo sapiens) [compound 404]”: the “Peptide Presentation” value with ovarian cancer samples is “+”. The “Other relevant organs/ cancerous diseases” value in the data set on additional tumor types is recorded as “SCLC, Leukemia”.
Consider “406 (SVQGEDLYLV; listed as Homo sapiens) [compound 406]”, for which the “Peptide Presentation” value with ovarian cancer samples is listed as “++”. In addition, the “Other relevant organs/ cancerous diseases” value with additional tumor types is reported as “HCC, Endometrium”.
On to “410 (VLSDVIPSI; listed as Homo sapiens) [compound 410]”, for which the “Peptide Presentation” value in the data set on ovarian cancer samples is listed as “++”. For the same substance, the “Other relevant organs/ cancerous diseases” value with additional tumor types is reported as “SCLC, RCC, Brain Cancer, GC, HCC, PC, PrC, Leukemia, Melanoma, Esophageal Cancer”.
In the case of “411 (LLAHLSPEL; listed as Homo sapiens) [compound 411]”, the “Peptide Presentation” value in the data set with ovarian cancer samples is “+”. For the same substance, in the data set on additional tumor types, the “Other relevant organs/ cancerous diseases” value is “HCC” and the Additional organs/cancerous diseases entry is listed as “Melanoma”.
Regarding “413 (TLLEKVEGC; listed as Homo sapiens) [compound 413]”, in the data set on ovarian cancer samples, the “Peptide Presentation” value is on record as “++”. Moreover, in the data set with additional tumor types, the Additional organs/cancerous diseases entry was “Melanoma”.
For “414 (YVDDIFLRV; listed as Homo sapiens) [compound 414]”, the “Peptide Presentation” value in the data set with ovarian cancer samples was “+”. Besides, the Additional organs/cancerous diseases result with additional tumor types is reported as “GC, Melanoma”.
With “415 (LLDKVYSSV; listed as Homo sapiens) [compound 415]”, the “Peptide Presentation” value in the data set on ovarian cancer samples is given as “+”. In addition, in the data set with additional tumor types, the “Other relevant organs/ cancerous diseases” value is reported as “NSCLC, HCC, Leukemia, Esophageal Cancer”; the Additional organs/cancerous diseases result was “Brain Cancer, CLL, BRCA, Urinary Bladder Cancer, Uterine Cancer, Gallbladder Cancer and Bile Duct Cancer, AML, NHL, HNSCC”.
Turning to “418 (ALAELENIEV; listed as Homo sapiens) [compound 418]”, in the data set on ovarian cancer samples, the “Peptide Presentation” value is “+”. Besides, in the data set with additional tumor types, the “Other relevant organs/ cancerous diseases” value is given as “SCLC, MCC”; the Additional organs/cancerous diseases result was “CLL, BRCA, Urinary Bladder Cancer, Gallbladder Cancer and Bile Duct Cancer, HNSCC”.
Consider “419 (GQYEGKVSSV; listed as Homo sapiens) [compound 419]”, for which the “Peptide Presentation” value with ovarian cancer samples is “+”. In addition, in the data set on additional tumor types, the “Other relevant organs/ cancerous diseases” value is listed as “HCC” and the Additional organs/cancerous diseases entry is given as “BRCA”.
Turning to “420 (FMYDTPQEV; listed as Homo sapiens) [compound 420]”, in the data set with ovarian cancer samples, the “Peptide Presentation” value is given as “++”. In the data set with additional tumor types, the “Other relevant organs/ cancerous diseases” value is “SCLC, HCC, BrCa”; the Additional organs/cancerous diseases result was “Gallbladder Cancer and Bile Duct Cancer”.
Turning to “421 (RLPETLPSL; listed as Homo sapiens) [compound 421]”, the “Peptide Presentation” value with ovarian cancer samples is “++”. In addition, the “Other relevant organs/ cancerous diseases” value in the data set with additional tumor types is listed as “NSCLC, SCLC, GC, CRC, PC”.
